Reference: article PMC4207615
No constants are given. Whether binding was seen depends on the method and setting. In cells and extracts the contact can be indirect. Some results given as binding are weak or reduced against the parent protein; the word gives no strength.

The chains behind the UniProt entries cited, without tags or fusion partners.
UniProt Q0VGT2: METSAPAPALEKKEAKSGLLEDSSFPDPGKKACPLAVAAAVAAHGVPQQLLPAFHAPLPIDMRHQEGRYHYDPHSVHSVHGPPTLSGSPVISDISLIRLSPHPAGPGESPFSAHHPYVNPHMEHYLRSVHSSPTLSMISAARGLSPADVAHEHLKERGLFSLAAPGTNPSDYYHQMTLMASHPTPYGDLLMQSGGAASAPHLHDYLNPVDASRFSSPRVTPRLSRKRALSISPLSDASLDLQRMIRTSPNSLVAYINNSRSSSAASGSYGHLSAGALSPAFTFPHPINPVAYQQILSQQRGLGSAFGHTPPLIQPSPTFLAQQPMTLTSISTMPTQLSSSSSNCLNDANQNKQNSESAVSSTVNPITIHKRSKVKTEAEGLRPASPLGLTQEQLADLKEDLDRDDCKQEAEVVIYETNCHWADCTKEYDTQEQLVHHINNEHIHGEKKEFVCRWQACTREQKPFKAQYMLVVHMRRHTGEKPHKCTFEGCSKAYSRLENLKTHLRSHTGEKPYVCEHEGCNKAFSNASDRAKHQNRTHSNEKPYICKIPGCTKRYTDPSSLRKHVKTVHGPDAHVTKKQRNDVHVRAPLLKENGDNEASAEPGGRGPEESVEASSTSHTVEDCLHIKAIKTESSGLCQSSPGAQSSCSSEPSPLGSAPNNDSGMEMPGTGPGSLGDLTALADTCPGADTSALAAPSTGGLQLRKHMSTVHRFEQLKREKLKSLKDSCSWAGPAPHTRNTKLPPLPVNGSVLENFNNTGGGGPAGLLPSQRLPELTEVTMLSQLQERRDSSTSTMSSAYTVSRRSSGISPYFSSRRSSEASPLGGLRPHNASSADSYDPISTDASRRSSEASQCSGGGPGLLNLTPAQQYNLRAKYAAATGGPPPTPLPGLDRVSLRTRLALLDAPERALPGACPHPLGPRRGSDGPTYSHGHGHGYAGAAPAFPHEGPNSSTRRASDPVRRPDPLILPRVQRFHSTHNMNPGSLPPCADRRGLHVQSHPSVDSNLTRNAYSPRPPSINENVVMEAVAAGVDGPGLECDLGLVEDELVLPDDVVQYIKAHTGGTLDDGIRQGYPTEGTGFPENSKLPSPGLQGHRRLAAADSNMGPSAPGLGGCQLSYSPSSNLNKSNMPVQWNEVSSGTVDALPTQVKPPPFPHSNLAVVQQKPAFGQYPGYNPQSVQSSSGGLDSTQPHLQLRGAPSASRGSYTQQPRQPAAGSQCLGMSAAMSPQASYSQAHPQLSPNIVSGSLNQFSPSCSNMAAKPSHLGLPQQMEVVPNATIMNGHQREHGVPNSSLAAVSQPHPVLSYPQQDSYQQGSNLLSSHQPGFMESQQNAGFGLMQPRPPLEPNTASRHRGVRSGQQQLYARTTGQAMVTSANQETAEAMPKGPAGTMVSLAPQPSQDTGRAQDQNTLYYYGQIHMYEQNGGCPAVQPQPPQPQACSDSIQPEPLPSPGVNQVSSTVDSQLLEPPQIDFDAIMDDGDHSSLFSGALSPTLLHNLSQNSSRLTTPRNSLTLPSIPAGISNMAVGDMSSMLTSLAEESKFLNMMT
UniProt Q61602: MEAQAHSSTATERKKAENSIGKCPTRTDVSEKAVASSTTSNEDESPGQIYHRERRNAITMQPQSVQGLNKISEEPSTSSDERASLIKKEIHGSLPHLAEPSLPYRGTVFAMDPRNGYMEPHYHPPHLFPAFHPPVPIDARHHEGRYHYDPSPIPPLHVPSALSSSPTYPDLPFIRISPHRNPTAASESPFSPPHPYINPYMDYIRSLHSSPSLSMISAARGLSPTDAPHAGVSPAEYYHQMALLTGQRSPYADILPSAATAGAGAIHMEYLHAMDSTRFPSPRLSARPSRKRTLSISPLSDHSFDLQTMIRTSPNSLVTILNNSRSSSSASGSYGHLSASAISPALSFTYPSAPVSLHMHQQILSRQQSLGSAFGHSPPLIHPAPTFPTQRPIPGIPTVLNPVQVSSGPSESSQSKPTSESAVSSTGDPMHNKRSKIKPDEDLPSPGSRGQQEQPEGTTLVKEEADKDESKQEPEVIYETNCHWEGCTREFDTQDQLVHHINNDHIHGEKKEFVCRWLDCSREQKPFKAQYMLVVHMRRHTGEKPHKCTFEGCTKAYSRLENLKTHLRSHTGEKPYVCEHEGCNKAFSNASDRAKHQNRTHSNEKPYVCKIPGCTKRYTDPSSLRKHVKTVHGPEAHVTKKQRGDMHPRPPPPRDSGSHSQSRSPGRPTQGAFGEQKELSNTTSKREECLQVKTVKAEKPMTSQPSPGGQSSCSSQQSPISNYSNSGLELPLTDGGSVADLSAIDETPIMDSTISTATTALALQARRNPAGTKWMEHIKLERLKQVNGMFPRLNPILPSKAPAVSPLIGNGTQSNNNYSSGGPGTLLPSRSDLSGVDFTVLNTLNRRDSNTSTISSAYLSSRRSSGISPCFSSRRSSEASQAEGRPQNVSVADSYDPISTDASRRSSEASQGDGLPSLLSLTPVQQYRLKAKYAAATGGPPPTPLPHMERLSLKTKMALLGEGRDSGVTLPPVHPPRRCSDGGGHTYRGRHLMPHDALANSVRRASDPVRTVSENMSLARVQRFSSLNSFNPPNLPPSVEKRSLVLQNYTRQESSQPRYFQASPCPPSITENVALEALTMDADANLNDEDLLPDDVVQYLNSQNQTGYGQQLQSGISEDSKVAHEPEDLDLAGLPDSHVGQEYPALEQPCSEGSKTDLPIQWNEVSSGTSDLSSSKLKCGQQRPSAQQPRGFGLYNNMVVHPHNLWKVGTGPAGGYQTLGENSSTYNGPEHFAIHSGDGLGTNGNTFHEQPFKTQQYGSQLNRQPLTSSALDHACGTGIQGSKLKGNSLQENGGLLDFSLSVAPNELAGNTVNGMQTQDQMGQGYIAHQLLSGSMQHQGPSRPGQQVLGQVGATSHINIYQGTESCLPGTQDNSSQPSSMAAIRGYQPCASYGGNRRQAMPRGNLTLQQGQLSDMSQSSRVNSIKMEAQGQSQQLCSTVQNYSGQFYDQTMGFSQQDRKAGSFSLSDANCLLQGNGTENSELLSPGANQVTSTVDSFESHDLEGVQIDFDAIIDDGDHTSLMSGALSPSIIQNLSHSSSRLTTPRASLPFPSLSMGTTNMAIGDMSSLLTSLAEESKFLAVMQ

Target: T1, Sufu (mouse (endogenous in MEFs)) (UniProt Q9Z0P7)
T1 sequence: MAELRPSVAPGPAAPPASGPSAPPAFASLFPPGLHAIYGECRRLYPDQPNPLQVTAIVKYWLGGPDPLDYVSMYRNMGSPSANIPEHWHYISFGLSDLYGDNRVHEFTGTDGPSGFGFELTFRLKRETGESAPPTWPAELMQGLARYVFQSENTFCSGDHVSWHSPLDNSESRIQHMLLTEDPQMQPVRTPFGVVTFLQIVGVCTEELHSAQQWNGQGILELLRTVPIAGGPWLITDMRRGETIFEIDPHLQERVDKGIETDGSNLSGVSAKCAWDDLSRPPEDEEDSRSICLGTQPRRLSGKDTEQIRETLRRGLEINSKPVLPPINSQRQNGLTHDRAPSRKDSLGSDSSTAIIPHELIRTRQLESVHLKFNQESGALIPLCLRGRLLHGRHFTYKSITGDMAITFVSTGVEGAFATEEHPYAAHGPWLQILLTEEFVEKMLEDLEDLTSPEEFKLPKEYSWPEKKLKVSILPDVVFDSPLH
Assay: co-IP; endogenous proteins of wild-type and hop/hop MEFs treated 5 h with SAG (400 nM) and bortezomib (2 uM) or DMSO (0.02%); lysis in 50 mM Tris pH 7.5, 300 mM NaCl, 2% NP-40, 0.25% deoxycholate; precipitated with anti-Sufu antibody overnight at 4°C and Dynabeads Protein G; blotted for Gli3, Gli2, Sufu

Row | binding | Substance
1 | binds | full-length Gli2 (Gli2-F) (from UniProt Q0VGT2 1-1544)
2 | binds | full-length Gli3 protein (Gli3-F) (from UniProt Q61602 1-1583)
